Results published in PubChem BioAssay AID256 (DTP/NCI, 2004).
The list is a part of this screen's results and no random one: it gathers tests that were run many times, whatever their T/C, doses with no T/C, and many T/C values between a quarter and a half above the control. Other doses and runs of a compound stand elsewhere. T/C gives the treated animals as a percentage of the vehicle group. Some doses have a count of surviving animals in place of a T/C: the source holds a T/C of zero for them, seemingly a mark for toxic or unscored doses. Some survivor counts are full or nearly so, which does not show that the dose was tolerated: survival well below the control is almost never listed, so the zero probably covers shortened survival too. Survivors were counted at the toxicity check, usually on the fifth day, unless a day is given; later deaths do not show. Schedules are NCI's codes, taken here to give the interval after Q, in days (D) or hours (H), and the number of doses after X. Some entries hold several experiments; the results are listed from low to high. Where survival is the endpoint, the PubChem record calls one and a half times the control and up active, and a quarter to a half above the control has no call in these data; cut-offs in other NCI protocols can differ. Signs of the kind (2×) stand for listed records that agree. Some T/C values carry the count of animals alive at the toxicity check (mostly the fifth day); without a count, all were alive then.

Tested on: CD2F1 mice, L1210 leukemia ip, survival T/C
Assay: NCI In Vivo Anticancer Drug Screen. Data for tumor model L1210 Leukemia (intraperitoneal) in CD2F1 (CDF1) mice
Details: higher T/C = longer survival
Summary of the method: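 Compound-dosed mice with transplantable tumor versus matched vehicle controls; endpoint ratio T/C reported.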

[1] = T/C endpoint: mean survival time, dose: 200.0 mg/kg/injection, schedule: Q01DX001 (ip), vehicle: saline with Tween-80
[2] = T/C endpoint: mean survival time, dose: 100.0 mg/kg/injection, schedule: Q04DX003 (ip), vehicle: saline with Tween-80
[3] = T/C endpoint: mean survival time, dose: 200.0 mg/kg/injection, schedule: Q04DX003 (ip), vehicle: saline with Tween-80
[4] = T/C endpoint: mean survival time, dose: 400.0 mg/kg/injection, schedule: Q04DX003 (ip), vehicle: saline with Tween-80
[5] = T/C endpoint: mean survival time, dose: 100.0 mg/kg/injection, schedule: Q01DX001 (ip), vehicle: saline with Tween-80
[6] = T/C endpoint: mean survival time, dose: 400.0 mg/kg/injection, schedule: Q01DX001 (ip), vehicle: saline with Tween-80
[7] = T/C endpoint: mean survival time, dose: 300.0 mg/kg/injection, schedule: Q01DX001 (ip), vehicle: saline
[8] = T/C endpoint: median survival time, dose: 200.0 mg/kg/injection, schedule: Q01DX009 (ip), vehicle: Klucel (hydroxypropylcellulose) (HPC)
[9] = T/C endpoint: median survival time, dose: 400.0 mg/kg/injection, schedule: Q01DX009 (ip), vehicle: Klucel (hydroxypropylcellulose) (HPC)
[10] = T/C endpoint: mean survival time, dose: 25.0 mg/kg/injection, schedule: Q01DX001 (ip), vehicle: saline with Tween-80
[11] = T/C endpoint: mean survival time, dose: 25.0 mg/kg/injection, schedule: Q01DX009 (ip), vehicle: saline with Tween-80
[12] = T/C endpoint: mean survival time, dose: 25.0 mg/kg/injection, schedule: Q04DX002 (ip), vehicle: saline with Tween-80
[13] = T/C endpoint: mean survival time, dose: 100.0 mg/kg/injection, schedule: Q04DX002 (ip), vehicle: saline with Tween-80

## Nc1ncnc2nc(-c3cccc(CNC(=O)c4ccccc4S(=O)(=O)F)c3)[nH]c12
[1]
  survivor count: 6 of 6

## Cc1cc(O)c(C(C)C)cc1N(C)C (tested in a mixture with another compound)
T/C endpoint: mean survival time, dose: 1.0 mg/kg/injection, schedule: Q04DX003 (ip), vehicle: saline
  survivor count: 2 of 6
T/C endpoint: mean survival time, dose: 2.0 mg/kg/injection, schedule: Q01DX001 (ip), vehicle: saline
  survivor count: 0 of 6
T/C endpoint: mean survival time, dose: 3.75 mg/kg/injection, schedule: Q01DX001 (ip), vehicle: saline
  survivor count: 0 of 6
T/C endpoint: mean survival time, dose: 7.5 mg/kg/injection, schedule: Q01DX001 (ip), vehicle: saline
  survivor count: 0 of 6
T/C endpoint: mean survival time, dose: 15.0 mg/kg/injection, schedule: Q01DX001 (ip), vehicle: saline
  survivor count: 0 of 6
T/C endpoint: mean survival time, dose: 18.8 mg/kg/injection, schedule: Q01DX001 (ip), vehicle: saline
  survivor count: 0 of 6
T/C endpoint: mean survival time, dose: 37.5 mg/kg/injection, schedule: Q01DX001 (ip), vehicle: saline
  survivor count: 0 of 6
T/C endpoint: mean survival time, dose: 75.0 mg/kg/injection, schedule: Q01DX001 (ip), vehicle: saline
  survivor count: 0 of 6

## Cc1cc2ccccc2[n+](C)c1-c1ccccc1Cl (tested in a mixture with another compound)
T/C endpoint: mean survival time, dose: 20.0 mg/kg/injection, schedule: Q01DX009 (ip), vehicle: saline
  survivor count: 3 of 6
[2]
  survivor count: 0 of 6
[3]
  survivor count: 0 of 6
[4]
  survivor count: 0 of 6

## Nc1ncnc2nc(-c3ccc(OCCCOc4ccccc4)c(Cl)c3)[nH]c12
[5]
  survivor count: 6 of 6
[1]
  survivor count: 6 of 6
[6]
  survivor count: 6 of 6

## Cc1ccc2ncccc2c1[N+](=O)[O-]
[4]
  survivor count: 2 of 6

## O=c1scc(-c2ccc([N+](=O)[O-])cc2)s1
T/C endpoint: mean survival time, dose: 50.0 mg/kg/injection, schedule: Q04DX003 (ip), vehicle: Klucel (hydroxypropylcellulose) (HPC)
  survivor count: 1 of 6

## CCOc1ccc(Nc2nc(C(Cl)(Cl)Cl)cc(C(Cl)(Cl)Cl)n2)cc1CN(CC)CC
[2]
  survivor count: 2 of 6
[3]
  survivor count: 2 of 6
[4]
  survivor count: 1 of 6

## CC1CN(Br)C(=O)N(Br)C1=O (configuration not stated)
[7]
  survivor count: 1 of 6

## Cc1cc(Nc2ccc3c(c2)OCO3)c2cc3c(cc2n1)OCO3
[8]
  survivor count: 0 of 6
[9]
  survivor count: 0 of 6

## OC1C=C(c2ccccc2)C(c2ccccc2)C(c2ccccc2)C1 (configuration not stated)
[1]
  survivor count: 6 of 6

## COc1ccc(CCNC2c3ccccc3C=Cc3ccccc32)cc1OC
[10]
  survivor count: 3 of 3
[5]
  survivor count: 3 of 3
T/C endpoint: mean survival time, dose: 400.0 mg/kg/injection, schedule: Q01DX001 (ip), vehicle: saline
  survivor count: 1 of 3

## Fc1ccc(NC2(c3nnnn3C3CCCCC3)CCNCC2)cc1
[5]
  survivor count: 0 of 6
[1]
  survivor count: 0 of 6
[6]
  survivor count: 0 of 6

## COc1ccccc1C1N(C)CCCN1C
T/C endpoint: mean survival time, dose: 100.0 mg/kg/injection, schedule: Q04DX003 (ip), vehicle: saline sonified
  survivor count: 0 of 6
T/C endpoint: mean survival time, dose: 200.0 mg/kg/injection, schedule: Q04DX003 (ip), vehicle: saline sonified
  survivor count: 0 of 6
T/C endpoint: mean survival time, dose: 400.0 mg/kg/injection, schedule: Q04DX003 (ip), vehicle: saline sonified
  survivor count: 0 of 6

## Cc1ccn(C)c(=N)c1
T/C endpoint: mean survival time, dose: 400.0 mg/kg/injection, schedule: Q01DX009 (ip), vehicle: saline sonified
  survivor count: 2 of 6

## O=C(OCC1OC(n2cc(C(F)(F)F)c(=O)[nH]c2=O)CC1OC(=O)c1ccc([N+](=O)[O-])cc1)c1ccc([N+](=O)[O-])cc1 (configuration not stated)
T/C endpoint: median survival time, dose: 100.0 mg/kg/injection, schedule: Q01DX009 (ip), vehicle: Klucel (hydroxypropylcellulose) (HPC)
  T/C: 125 % of control
[8]
  T/C: 141 % of control
[9]
  T/C: 137 % of control

## CC1CCC(C(C)C2C(O)CC3C4CC=C5CC(O)CCC5(C)C4CCC32C)NC1 (configuration not stated)
[4]
  survivor count: 6 of 6

## COC(=O)c1ccc(NC(=O)Cc2c(O)c3c(c(C)c2OC)COC3=O)cc1N
T/C endpoint: mean survival time, dose: 400.0 mg/kg/injection, schedule: Q04DX002 (ip), vehicle: saline
  T/C: 128 % of control
T/C endpoint: median survival time, dose: 400.0 mg/kg/injection, schedule: Q04DX002 (ip), vehicle: saline
  T/C: 143 % of control

## CCc1cc(CC)c(CC)c(Br)c1CC
T/C endpoint: mean survival time, dose: 200.0 mg/kg/injection, schedule: Q01DX009 (ip), vehicle: saline with Tween-80
  survivor count: 3 of 6
[4]
  survivor count: 2 of 6

## COc1cc2ccc(-c3cc(C(=O)O)c4ccccc4n3)cc2cc1OC
[7]
  survivor count: 3 of 6

## C=CCNC(=O)c1ccc[n+](CC(=O)NCCCCCCCCCC)c1
T/C endpoint: mean survival time, dose: 100.0 mg/kg/injection, schedule: Q04DX003 (ip), vehicle: saline
  survivor count: 0 of 6
T/C endpoint: mean survival time, dose: 200.0 mg/kg/injection, schedule: Q04DX003 (ip), vehicle: saline
  survivor count: 0 of 6
T/C endpoint: mean survival time, dose: 400.0 mg/kg/injection, schedule: Q04DX003 (ip), vehicle: saline
  survivor count: 0 of 6

## COc1cc2c(cc1OC)-c1c(cnn1C1OC(COC(C)=O)C(OC(C)=O)C(OC(C)=O)C1OC(C)=O)CC2 (configuration not stated)
T/C endpoint: mean survival time, dose: 200.0 mg/kg/injection, schedule: Q01DX005 (ip), vehicle: other
  survivor count: 6 of 6

## CCN(CC)CC(C)(C)C(=O)/C=C/c1ccc(/C=C/C(=O)C(C)(C)CN(CC)CC)cc1
T/C endpoint: median survival time, dose: 60.0 mg/kg/injection, schedule: Q01DX005 (ip), vehicle: saline
  survivor count: 0 of 6

## CCCCCCCCCCCCCCCCCC(=O)NNCCO
T/C endpoint: mean survival time, dose: 400.0 mg/kg/injection, schedule: Q01DX009 (ip), vehicle: saline with Tween-80
  survivor count: 0 of 6

## O=P(O)(c1ccccc1CBr)c1ccccc1CBr
T/C endpoint: mean survival time, dose: 150.0 mg/kg/injection, schedule: Q01DX001 (ip), vehicle: saline
  survivor count: 0 of 6
[7]
  survivor count: 0 of 6

## COc1cccc2c1C(=O)CC2
T/C endpoint: mean survival time, dose: 150.0 mg/kg/injection, schedule: Q01DX009 (ip), vehicle: Klucel (hydroxypropylcellulose) (HPC)
  survivor count: 3 of 6
T/C endpoint: mean survival time, dose: 225.0 mg/kg/injection, schedule: Q01DX009 (ip), vehicle: Klucel (hydroxypropylcellulose) (HPC)
  survivor count: 3 of 6
T/C endpoint: mean survival time, dose: 335.0 mg/kg/injection, schedule: Q01DX009 (ip), vehicle: Klucel (hydroxypropylcellulose) (HPC)
  survivor count: 0 of 6

## COc1cc(C(C)c2cc3c(cc2OCCO)OCO3)cc(OC)c1OC (configuration not stated)
T/C endpoint: median survival time, dose: 200.0 mg/kg/injection, schedule: Q01DX009 (ip), vehicle: saline with Tween-80, evaluated on day 25
  T/C: 143 % of control
T/C endpoint: median survival time, dose: 200.0 mg/kg/injection, schedule: Q01DX009 (ip), vehicle: saline with Tween-80, evaluated on day 30
  T/C: 133 % of control [4 of 6 alive]
T/C endpoint: median survival time, dose: 400.0 mg/kg/injection, schedule: Q01DX009 (ip), vehicle: saline with Tween-80
  survivor count: 0 of 6 and 1 of 6

## CCOC(=O)c1ccc(NC(=O)Nc2cc(Cl)c(Cl)cc2C)cc1
T/C endpoint: mean survival time, dose: 12.5 mg/kg/injection, schedule: Q01DX009 (ip), vehicle: saline with Tween-80
  survivor count: 6 of 6
T/C endpoint: mean survival time, dose: 12.5 mg/kg/injection, schedule: Q04DX003 (ip), vehicle: saline with Tween-80
  survivor count: 6 of 6
[10]
  survivor count: 6 of 6
[11]
  T/C: 86 % of control
  survivor count: 3 of 3 and 6 of 6
[12]
  T/C: 91 and 92 % of control (2×)
  survivor count: 3 of 3
T/C endpoint: mean survival time, dose: 50.0 mg/kg/injection, schedule: Q01DX009 (ip), vehicle: saline with Tween-80
  survivor count: 3 of 3 and 6 of 6
T/C endpoint: mean survival time, dose: 50.0 mg/kg/injection, schedule: Q04DX002 (ip), vehicle: saline with Tween-80
  survivor count: 3 of 3
[13]
  T/C: 87 and 88 % of control (2×)
  survivor count: 3 of 3
T/C endpoint: mean survival time, dose: 200.0 mg/kg/injection, schedule: Q04DX002 (ip), vehicle: saline with Tween-80
  survivor count: 3 of 3 and 6 of 6
T/C endpoint: mean survival time, dose: 400.0 mg/kg/injection, schedule: Q04DX002 (ip), vehicle: saline with Tween-80
  survivor count: 6 of 6

## Cc1ccc(S(=O)(=O)NC(=S)c2ccccc2)cc1
[6]
  survivor count: 0 of 3
